# Article PMC4008428
# Chains of the proteins cited; added tags and fusions are not shown. Residues count along the entry.
# UniProt P35225, residues 25-146: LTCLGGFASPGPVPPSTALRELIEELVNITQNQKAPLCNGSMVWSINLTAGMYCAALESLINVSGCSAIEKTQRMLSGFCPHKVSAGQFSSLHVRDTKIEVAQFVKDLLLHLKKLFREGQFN
# These are yes or no findings as the source states them, for the method shown. Some results given as binding are weak or reduced against the parent protein; the word gives no strength.
# Experiments:
# [1] = biological target: T1, IL13Rα2 constitutively expressed on U251T glioma cells (human (endogenous in U251T)) (UniProt Q14627); assay: flow cytometry on cells; biotinylated IL-13 / streptavidin-PE on U251T cells, in the presence and absence of 10-fold molar excess of recombinant human IL-4 or IL-13 (pre-incubation); only the binder purified
# T1 sequence: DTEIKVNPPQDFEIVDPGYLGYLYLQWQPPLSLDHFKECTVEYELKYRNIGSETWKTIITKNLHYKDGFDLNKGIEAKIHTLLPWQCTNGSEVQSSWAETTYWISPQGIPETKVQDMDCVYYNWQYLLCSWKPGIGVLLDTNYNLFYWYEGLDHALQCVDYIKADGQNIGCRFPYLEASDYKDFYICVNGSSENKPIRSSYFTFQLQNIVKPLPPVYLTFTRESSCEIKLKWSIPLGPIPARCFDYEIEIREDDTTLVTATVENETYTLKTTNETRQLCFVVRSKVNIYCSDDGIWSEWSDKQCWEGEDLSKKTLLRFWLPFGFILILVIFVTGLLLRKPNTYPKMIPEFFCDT
# [2] = biological target: T2, Full length, human IL13Rα2 expressed on D283 cells (D283-IL13Rα2) (human) (UniProt Q14627); assay: flow cytometry on cells; biotinylated IL-13 incubated with cells, then streptavidin-PE; only the binder purified
# T2 sequence: T1 sequence
# [3] = biological target: T3, VCAM-1, cytokine-induced on glioma and THP-1 cells (the cytokine-induced B-D13 target antigen) (human (endogenous in THP-1, PBT008, PBT003)) (UniProt P19320); assay: as above
# T3 sequence: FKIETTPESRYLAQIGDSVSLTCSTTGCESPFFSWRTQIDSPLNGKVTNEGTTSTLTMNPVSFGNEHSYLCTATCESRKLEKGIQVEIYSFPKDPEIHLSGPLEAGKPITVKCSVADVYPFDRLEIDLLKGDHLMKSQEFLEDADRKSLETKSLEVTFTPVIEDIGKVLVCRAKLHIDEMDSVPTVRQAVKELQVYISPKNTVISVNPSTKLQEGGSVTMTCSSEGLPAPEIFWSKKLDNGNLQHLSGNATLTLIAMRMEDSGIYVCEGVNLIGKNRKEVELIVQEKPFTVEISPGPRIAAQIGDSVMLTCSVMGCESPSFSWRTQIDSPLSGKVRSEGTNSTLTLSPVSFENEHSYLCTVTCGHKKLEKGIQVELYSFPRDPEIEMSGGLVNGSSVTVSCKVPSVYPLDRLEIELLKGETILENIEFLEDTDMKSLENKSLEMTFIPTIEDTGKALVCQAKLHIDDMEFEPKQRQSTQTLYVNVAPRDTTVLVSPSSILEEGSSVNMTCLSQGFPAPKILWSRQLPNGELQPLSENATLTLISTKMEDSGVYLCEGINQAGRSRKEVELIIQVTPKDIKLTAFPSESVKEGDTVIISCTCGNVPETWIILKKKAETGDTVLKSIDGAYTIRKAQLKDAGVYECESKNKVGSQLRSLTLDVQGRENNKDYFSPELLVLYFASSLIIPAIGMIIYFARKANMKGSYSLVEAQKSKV
binding [1],binding [2],binding [3],Substance
binds,–,–,Unconjugated recombinant human IL-13 (from UniProt P35225 25-146) (ligand)
binds,binds,no binding,Biotinylated human recombinant IL-13 (from UniProt P35225 25-146) (ligand)
